According to patent US20160145222A1, “Methods for Controlling Pests in Soybean” (BASF SE, priority 2013, published 2016):
Some results were stated once for a whole list of compounds, not compound by compound.

System: Nezara viridula
Assay: Green Soldier Stink Bug (Nezara viridula) spray test on soybean pods
Format: in vivo
Details: sprayed, late 3rd instar N. viridula, after 5 days

CCCC(=O)NCc1ccc(C2=NSC(c3cc(F)cc(C(F)(F)F)c3)(C(F)(F)F)C2)cc1Cl (stereo not shown) [Compound 3-170]
mortality in comparison with untreated controls (500 ppm): over 75%

O=C(NCc1ccc(C2=NSC(c3cc(Cl)c(F)c(Cl)c3)(C(F)(F)F)C2)cc1Cl)C1=CCC1 (stereo not shown) [Compound 3-111]
mortality in comparison with untreated controls (500 ppm): over 75%

CCNC(=O)CC(=O)NCc1ccc(C2=NSC(c3cc(Cl)c(F)c(Cl)c3)(C(F)(F)F)C2)cc1Cl (stereo not shown) [Compound 3-64]
mortality in comparison with untreated controls (100 ppm): over 75% | mortality in comparison with untreated controls (500 ppm): over 75%

CC(=O)NCc1ccc(C2=NSC(c3cc(Cl)cc(Cl)c3)(C(F)(F)F)C2)cc1Cl (stereo not shown) [Compound 3-11]
mortality in comparison with untreated controls (500 ppm): over 75%

Cc1cc(C2=NSC(c3cc(Cl)cc(Cl)c3)(C(F)(F)F)C2)ccc1C=NNC(=O)NCC1CC1 (stereo not shown) [Compound 1-1]
mortality in comparison with untreated controls (500 ppm): over 75%

CSc1cc(C2=NSC(c3cc(Cl)c(Cl)c(Cl)c3)(C(F)(F)F)C2)ccc1CNC(=O)CS(C)(=O)=O (stereo not shown) [Compound 3-35]
mortality in comparison with untreated controls (100 ppm): over 75% | mortality in comparison with untreated controls (500 ppm): over 75%

CCNC(=O)NN=Cc1ccc(C2=NSC(c3cc(Cl)cc(Cl)c3)(C(F)(F)F)C2)cc1C (stereo not shown) [Compound 1-2]
mortality in comparison with untreated controls (500 ppm): over 75%

CCCC(=O)NCc1ccc(C2=NSC(c3cc(Br)c(F)c(Br)c3)(C(F)(F)F)C2)cc1Cl (stereo not shown) [Compound 3-134]
mortality in comparison with untreated controls (100 ppm): over 75% | mortality in comparison with untreated controls (500 ppm): over 75%

O=C(CC(F)(F)F)NCc1ccc(C2=NSC(c3cc(Cl)c(F)c(Cl)c3)(C(F)(F)F)C2)cc1F (stereo not shown) [Compound 3-148]
mortality in comparison with untreated controls (100 ppm): over 75% | mortality in comparison with untreated controls (500 ppm): over 75%

O=C(NCC(F)(F)F)NN=Cc1ccc(C2=NSC(c3cc(Cl)c(Cl)c(Cl)c3)(C(F)(F)F)C2)cc1Cl (stereo not shown) [Compound 1-30]
mortality in comparison with untreated controls (500 ppm): over 75%

CS(=O)(=O)CC(=O)NCc1ccc(C2=NSC(c3cc(Cl)cc(C(F)(F)F)c3)(C(F)(F)F)C2)cc1Cl (stereo not shown) [Compound 3-163]
mortality in comparison with untreated controls (500 ppm): over 75%

O=C(NCC(F)(F)F)NN=Cc1ccc(C2=NSC(c3cc(Cl)cc(Cl)c3)(C(F)(F)F)C2)cc1Cl (stereo not shown) [Compound 1-5]
mortality in comparison with untreated controls (500 ppm): over 75%

O=C(CC1OCCO1)NCc1ccc(C2=NSC(c3cc(Cl)c(F)c(Cl)c3)(C(F)(F)F)C2)cc1Cl (stereo not shown) [Compound 3-157]
mortality in comparison with untreated controls (100 ppm): over 75% | mortality in comparison with untreated controls (500 ppm): over 75%

O=C(NCc1ccc(C2=NSC(c3cc(Br)cc(C(F)(F)F)c3)(C(F)(F)F)C2)cc1Cl)C1CC1 (stereo not shown) [Compound 3-99]
mortality in comparison with untreated controls (100 ppm): over 75% | mortality in comparison with untreated controls (500 ppm): over 75%

CCCC(=O)NCc1ccc(C2=NSC(c3cc(Br)cc(C(F)(F)F)c3)(C(F)(F)F)C2)cc1Br (stereo not shown) [Compound 3-130]
mortality in comparison with untreated controls (100 ppm): over 75% | mortality in comparison with untreated controls (500 ppm): over 75%

CNC(=O)NN=Cc1ccc(C2=NSC(c3cc(Cl)c(Cl)c(Cl)c3)(C(F)(F)F)C2)cc1C (stereo not shown) [Compound 1-19]
mortality in comparison with untreated controls (500 ppm): over 75%

Cc1cc(C2=NSC(c3cc(Cl)c(Cl)c(Cl)c3)(C(F)(F)F)C2)ccc1C=NNC(=O)NCC(F)(F)F (stereo not shown) [Compound 1-20]
mortality in comparison with untreated controls (500 ppm): over 75%

O=C(NCc1ccc(C2=NSC(c3cc(Br)c(F)c(Br)c3)(C(F)(F)F)C2)cc1Cl)C1CC1 (stereo not shown) [Compound 3-133]
mortality in comparison with untreated controls (100 ppm): over 75% | mortality in comparison with untreated controls (500 ppm): over 75%

O=C(NCc1ccc(C2=NSC(c3cc(F)cc(C(F)(F)F)c3)(C(F)(F)F)C2)cc1Cl)C1CC1 (stereo not shown) [Compound 3-169]
mortality in comparison with untreated controls (100 ppm): over 75% | mortality in comparison with untreated controls (500 ppm): over 75%

Cc1cc(C2=NSC(c3cc(Cl)c(F)c(Cl)c3)(C(F)(F)F)C2)ccc1C(=O)NCC1CCCCC1 (racemic) [Compound 2-58]
mortality in comparison with untreated controls (500 ppm): over 75%

O=C(CC(F)(F)F)NCc1ccc(C2=NSC(c3cc(Br)cc(C(F)(F)F)c3)(C(F)(F)F)C2)cc1F (stereo not shown) [Compound 3-141]
mortality in comparison with untreated controls (100 ppm): over 75% | mortality in comparison with untreated controls (500 ppm): over 75%

CNC(=O)NN=Cc1ccc(C2=NSC(c3cc(Cl)c(F)c(Cl)c3)(C(F)(F)F)C2)cc1C (stereo not shown) [Compound 1-24]
mortality in comparison with untreated controls (500 ppm): over 75%

CCC(=O)NCc1ccc(C2=NSC(c3cc(F)cc(C(F)(F)F)c3)(C(F)(F)F)C2)cc1Cl (stereo not shown) [Compound 3-167]
mortality in comparison with untreated controls (100 ppm): over 75% | mortality in comparison with untreated controls (500 ppm): over 75%

CC(=O)NCc1ccc(C2=NSC(c3cc(Cl)c(F)c(Cl)c3)(C(F)(F)F)C2)cc1F (stereo not shown) [Compound 3-152]
mortality in comparison with untreated controls (100 ppm): over 75% | mortality in comparison with untreated controls (500 ppm): over 75%

CONC(=O)NN=Cc1ccc(C2=NSC(c3cc(Cl)c(Cl)c(Cl)c3)(C(F)(F)F)C2)cc1SC (stereo not shown) [Compound 1-37]
mortality in comparison with untreated controls (100 ppm): over 75% | mortality in comparison with untreated controls (500 ppm): over 75%

O=C(NCc1ccc(C2=NSC(c3cc(Cl)c(F)c(Cl)c3)(C(F)(F)F)C2)cc1Cl)C1CCO1 (stereo not shown) [Compound 3-63]
mortality in comparison with untreated controls (100 ppm): over 75% | mortality in comparison with untreated controls (500 ppm): over 75%

CCC(=O)NCc1ccc(C2=NSC(c3cc(Cl)c(Cl)c(Cl)c3)(C(F)(F)F)C2)cc1OC (stereo not shown) [Compound 3-30]
mortality in comparison with untreated controls (100 ppm): over 75% | mortality in comparison with untreated controls (500 ppm): over 75%

CC(C)CC(=O)NCc1ccc(C2=NSC(c3cc(Cl)c(F)c(Cl)c3)(C(F)(F)F)C2)cc1Cl (stereo not shown) [Compound 3-86]
mortality in comparison with untreated controls (500 ppm): over 75%

CC(=O)NCc1ccc(C2=NSC(c3cc(Cl)cc(Br)c3)(C(F)(F)F)C2)cc1Cl (stereo not shown) [Compound 3-124]
mortality in comparison with untreated controls (500 ppm): over 75%

CCNC(=O)NN=Cc1ccc(C2=NSC(c3cc(Cl)cc(Cl)c3)(C(F)(F)F)C2)cc1Cl (stereo not shown) [Compound 1-6]
mortality in comparison with untreated controls (500 ppm): over 75%

CCS(CC)=NC(=O)c1ccc(C2=NSC(c3cc(Cl)c(F)c(Cl)c3)(C(F)(F)F)C2)cc1C (racemic) [Compound 2-60]
mortality in comparison with untreated controls (100 ppm): over 75% | mortality in comparison with untreated controls (500 ppm): over 75%

C=CCNC(=O)c1ccc(C2=NSC(c3cc(Cl)cc(Br)c3)(C(F)(F)F)C2)cc1Cl (racemic) [Compound 2-70]
mortality in comparison with untreated controls (500 ppm): over 75%

CCN(Cc1ccc(C2=NSC(c3cc(Cl)cc(Cl)c3)(C(F)(F)F)C2)cc1Cl)C(=O)C1CS(=O)(=O)C1 (stereo not shown) [Compound 3-13]
mortality in comparison with untreated controls (100 ppm): over 75% | mortality in comparison with untreated controls (500 ppm): over 75%

O=C(NCC(F)F)NN=Cc1ccc(C2=NSC(c3cc(Cl)c(Cl)c(Cl)c3)(C(F)(F)F)C2)cc1Cl (stereo not shown) [Compound 1-31]
mortality in comparison with untreated controls (500 ppm): over 75%

CC(C)(C)CC(=O)NCc1ccc(C2=NSC(c3cc(Cl)c(F)c(Cl)c3)(C(F)(F)F)C2)cc1Cl (stereo not shown) [Compound 3-75]
mortality in comparison with untreated controls (500 ppm): over 75%

CCCC(=O)NCc1ccc(C2=NSC(c3cc(Cl)c(F)c(Cl)c3)(C(F)(F)F)C2)cc1F (stereo not shown) [Compound 3-150]
mortality in comparison with untreated controls (100 ppm): over 75% | mortality in comparison with untreated controls (500 ppm): over 75%

O=C(NCc1ccc(C2=NSC(c3cc(Cl)c(F)c(Cl)c3)(C(F)(F)F)C2)cc1Cl)C1CCCC1 (stereo not shown) [Compound 3-89]
mortality in comparison with untreated controls (500 ppm): over 75%
